Reference: article doi:10.1101/2021.02.18.431813 (bioRxiv, 2021)
Like-named read-outs stand apart in the source and are kept apart here. These are yes or no findings as the source states them, for the method shown. Some entries that bind do so weakly or less than the wild type.

Sequences of proteins named here, by UniProt entry; tags and fusion partners are left off. Residues count along the entry.
UniProt Q9Y4D7, residues 47-1925: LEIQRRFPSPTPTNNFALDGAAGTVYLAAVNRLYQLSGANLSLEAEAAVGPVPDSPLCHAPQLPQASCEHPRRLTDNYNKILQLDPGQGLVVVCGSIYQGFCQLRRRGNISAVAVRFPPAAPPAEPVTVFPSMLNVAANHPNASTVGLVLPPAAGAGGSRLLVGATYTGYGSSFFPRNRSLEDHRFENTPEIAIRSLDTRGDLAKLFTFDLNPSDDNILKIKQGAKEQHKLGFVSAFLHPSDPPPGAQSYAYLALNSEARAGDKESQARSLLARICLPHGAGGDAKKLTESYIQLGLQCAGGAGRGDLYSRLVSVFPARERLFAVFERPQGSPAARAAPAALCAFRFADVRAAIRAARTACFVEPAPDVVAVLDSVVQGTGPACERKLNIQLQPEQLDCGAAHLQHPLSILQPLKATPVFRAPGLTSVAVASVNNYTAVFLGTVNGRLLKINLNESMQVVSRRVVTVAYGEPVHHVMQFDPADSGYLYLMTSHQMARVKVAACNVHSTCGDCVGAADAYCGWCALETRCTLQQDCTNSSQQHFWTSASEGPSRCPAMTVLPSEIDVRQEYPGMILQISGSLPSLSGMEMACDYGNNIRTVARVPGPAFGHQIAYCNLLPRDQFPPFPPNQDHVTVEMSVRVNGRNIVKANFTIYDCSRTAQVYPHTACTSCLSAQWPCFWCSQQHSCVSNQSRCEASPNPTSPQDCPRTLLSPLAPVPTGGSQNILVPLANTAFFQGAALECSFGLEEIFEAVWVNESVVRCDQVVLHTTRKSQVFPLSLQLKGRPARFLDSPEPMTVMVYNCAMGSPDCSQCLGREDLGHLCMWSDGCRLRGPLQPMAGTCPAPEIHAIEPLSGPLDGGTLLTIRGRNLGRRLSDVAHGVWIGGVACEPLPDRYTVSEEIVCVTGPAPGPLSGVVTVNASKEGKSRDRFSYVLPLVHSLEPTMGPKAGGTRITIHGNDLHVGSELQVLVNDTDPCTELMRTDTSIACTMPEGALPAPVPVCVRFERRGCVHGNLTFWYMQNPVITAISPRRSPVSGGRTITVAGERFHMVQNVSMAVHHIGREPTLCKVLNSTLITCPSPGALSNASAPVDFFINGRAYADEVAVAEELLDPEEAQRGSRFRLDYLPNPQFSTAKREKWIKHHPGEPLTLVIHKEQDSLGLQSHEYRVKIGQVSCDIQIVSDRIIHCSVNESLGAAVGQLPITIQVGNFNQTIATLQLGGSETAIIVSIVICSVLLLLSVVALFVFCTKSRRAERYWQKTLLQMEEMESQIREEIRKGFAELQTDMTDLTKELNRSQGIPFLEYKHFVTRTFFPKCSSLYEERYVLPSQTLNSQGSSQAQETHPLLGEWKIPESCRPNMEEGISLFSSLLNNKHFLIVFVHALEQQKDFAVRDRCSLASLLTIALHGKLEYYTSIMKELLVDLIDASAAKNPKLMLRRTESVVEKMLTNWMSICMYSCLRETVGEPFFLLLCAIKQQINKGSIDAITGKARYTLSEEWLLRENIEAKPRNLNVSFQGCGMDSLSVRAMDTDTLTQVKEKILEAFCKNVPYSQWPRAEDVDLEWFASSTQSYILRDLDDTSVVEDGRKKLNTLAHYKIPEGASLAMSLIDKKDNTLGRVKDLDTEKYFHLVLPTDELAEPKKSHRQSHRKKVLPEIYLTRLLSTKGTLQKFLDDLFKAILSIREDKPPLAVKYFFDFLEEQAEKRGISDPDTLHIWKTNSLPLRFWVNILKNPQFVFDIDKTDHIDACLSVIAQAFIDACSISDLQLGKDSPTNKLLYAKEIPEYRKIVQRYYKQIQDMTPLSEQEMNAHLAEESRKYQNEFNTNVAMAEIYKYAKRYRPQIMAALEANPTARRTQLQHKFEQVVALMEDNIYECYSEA
UniProt Q9HCM2, residues 24-1894: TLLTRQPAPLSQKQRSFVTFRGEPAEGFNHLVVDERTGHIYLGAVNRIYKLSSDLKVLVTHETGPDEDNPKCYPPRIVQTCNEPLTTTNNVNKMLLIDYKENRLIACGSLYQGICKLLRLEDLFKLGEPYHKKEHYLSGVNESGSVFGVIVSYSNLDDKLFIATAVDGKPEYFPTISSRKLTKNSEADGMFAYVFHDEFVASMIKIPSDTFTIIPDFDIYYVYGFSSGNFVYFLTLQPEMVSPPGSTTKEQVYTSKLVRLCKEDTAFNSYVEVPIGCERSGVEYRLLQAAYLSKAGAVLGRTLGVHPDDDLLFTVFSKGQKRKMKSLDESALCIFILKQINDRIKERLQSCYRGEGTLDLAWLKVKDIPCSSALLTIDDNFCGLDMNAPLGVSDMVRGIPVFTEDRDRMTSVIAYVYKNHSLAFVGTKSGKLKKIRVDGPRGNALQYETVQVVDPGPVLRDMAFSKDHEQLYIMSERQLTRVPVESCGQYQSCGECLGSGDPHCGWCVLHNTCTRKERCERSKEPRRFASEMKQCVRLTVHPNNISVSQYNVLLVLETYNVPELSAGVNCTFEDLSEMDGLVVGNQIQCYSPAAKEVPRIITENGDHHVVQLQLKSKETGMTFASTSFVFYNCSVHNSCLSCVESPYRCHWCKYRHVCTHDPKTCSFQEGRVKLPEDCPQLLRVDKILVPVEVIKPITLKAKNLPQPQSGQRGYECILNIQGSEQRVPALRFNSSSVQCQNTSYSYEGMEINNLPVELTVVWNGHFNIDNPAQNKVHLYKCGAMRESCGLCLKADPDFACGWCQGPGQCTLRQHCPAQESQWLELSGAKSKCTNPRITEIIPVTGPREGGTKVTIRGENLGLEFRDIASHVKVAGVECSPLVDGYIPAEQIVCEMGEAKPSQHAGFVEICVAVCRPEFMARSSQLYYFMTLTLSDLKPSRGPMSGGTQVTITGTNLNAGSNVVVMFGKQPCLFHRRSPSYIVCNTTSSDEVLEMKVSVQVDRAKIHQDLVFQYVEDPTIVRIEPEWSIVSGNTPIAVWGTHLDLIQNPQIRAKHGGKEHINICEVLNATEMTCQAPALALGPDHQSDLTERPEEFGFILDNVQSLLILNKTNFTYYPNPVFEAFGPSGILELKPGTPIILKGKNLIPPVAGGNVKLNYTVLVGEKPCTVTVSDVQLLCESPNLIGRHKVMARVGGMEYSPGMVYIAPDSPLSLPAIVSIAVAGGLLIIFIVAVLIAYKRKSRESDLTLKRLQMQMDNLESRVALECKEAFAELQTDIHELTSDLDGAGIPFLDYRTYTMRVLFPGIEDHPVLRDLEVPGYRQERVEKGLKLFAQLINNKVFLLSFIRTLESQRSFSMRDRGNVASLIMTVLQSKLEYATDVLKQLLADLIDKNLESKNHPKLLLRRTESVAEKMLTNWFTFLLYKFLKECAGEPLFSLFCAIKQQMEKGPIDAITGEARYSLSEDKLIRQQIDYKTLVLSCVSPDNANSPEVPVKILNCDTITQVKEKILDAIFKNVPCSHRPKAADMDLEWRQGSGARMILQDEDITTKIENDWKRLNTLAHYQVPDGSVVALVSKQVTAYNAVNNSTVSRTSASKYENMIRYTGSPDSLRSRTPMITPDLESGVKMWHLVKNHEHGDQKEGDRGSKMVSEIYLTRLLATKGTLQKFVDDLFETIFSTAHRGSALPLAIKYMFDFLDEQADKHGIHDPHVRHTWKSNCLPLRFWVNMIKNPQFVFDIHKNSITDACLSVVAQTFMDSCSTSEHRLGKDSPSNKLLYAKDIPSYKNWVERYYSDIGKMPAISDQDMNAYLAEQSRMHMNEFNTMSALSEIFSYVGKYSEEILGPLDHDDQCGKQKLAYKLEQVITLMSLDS

Columns and labels:
Assay in all cases: PIE-FCCS
[1] = target: Plexin D1 (human) (UniProt Q9Y4D7)
[2] = target: Plexin D1 (human) (UniProt Q9Y4D7); remark: listed apart in the source
[3] = target: Plexin A4 (human, UniProt Q9HCM2 24-1894)
[4] = target: Plexin A2 (human) (UniProt O75051)
[5] = target: Plexin A2 (human) (UniProt O75051); remark: listed apart in the source

Row | binding [1] | binding [2] | binding [3] | binding ([3]; record 2) | binding [4] | binding [5] | Molecule
1 | no binding | no binding | binds | binds |  |  | Plexin A4 (from UniProt Q9HCM2 24-1894) (receptor)
2 |  |  | binds |  | binds | binds | Plexin A2 (receptor, human, UniProt O75051 35-1894, looked up) MPQFSTFHSENRDWTFNHLTVHQGTGAVYVGAINRVYKLTGNLTIQVAHKTGPEEDNKSCYPPLIVQPCSEVLTLTNNVNKLLIIDYSENRLLACGSLYQGVCKLLRLDDLFILVEPSHKKEHYLSSVNKTGTMYGVIVRSEGEDGKLFIGTAVDGKQDYFPTLSSRKLPRDPESSAMLDYELHSDFVSSLIKIPSDTLALVSHFDIFYIYGFASGGFVYFLTVQPETPEGVAINSAGDLFYTSRIVRLCKDDPKFHSYVSLPFGCTRAGVEYRLLQAAYLAKPGDSLAQAFNITSQDDVLFAIFSKGQKQYHHPPDDSALCAFPIRAINLQIKERLQSCYQGEGNLELNWLLGKDVQCTKAPVPIDDNFCGLDINQPLGGSTPVEGLTLYTTSRDRMTSVASYVYNGYSVVFVGTKSGKLKKIRADGPPHGGVQYEMVSVLKDGSPILRDMAFSIDQRYLYVMSERQVTRVPVESCEQYTTCGECLSSGDPHCGWCALHNMCSRRDKCQQAWEPNRFAASISQCVSLAVHPSSISVSEHSRLLSLVVSDAPDLSAGIACAFGNLTEVEGQVSGSQVICISPGPKDVPVIPLDQDWFGLELQLRSKETGKIFVSTEFKFYNCSAHQLCLSCVNSAFRCHWCKYRNLCTHDPTTCSFQEGRINISEDCPQLVPTEEILIPVGEVKPITLKARNLPQPQSGQRGYECVLNIQGAIHRVPALRFNSSSVQCQNSSYQYDGMDISNLAVDFAVVWNGNFIIDNPQDLKVHLYKCAAQRESCGLCLKADRKFECGWCSGERRCTLHQHCTSPSSPWLDWSSHNVKCSNPQITEILTVSGPPEGGTRVTIHGVNLGLDFSEIAHHVQVAGVPCTPLPGEYIIAEQIVCEMGHALVGTTSGPVRLCIGECKPEFMTKSHQQYTFVNPSVLSLNPIRGPESGGTMVTITGHYLGAGSSVAVYLGNQTCEFYGRSMSEIVCVSPPSSNGLGPVPVSVSVDRAHVDSNLQFEYIDDPRVQRIEPEWSIASGHTPLTITGFNLDVIQEPRIRVKFNGKESVNVCKVVNTTTLTCLAPSLTTDYRPGLDTVERPDEFGFVFNNVQSLLIYNDTKFIYYPNPTFELLSPTGVLDQKPGSPIILKGKNLCPPASGGAKLNYTVLIGETPCAVTVSETQLLCEPPNLTGQHKVMVHVGGMVFSPGSVSVISDSLLTLPAIVSIAAGGSLLLIIVIIVLIAYKRKSRENDLTLKRLQMQMDNLESRVALECKEAFAELQTDINELTSDLDRSGIPYLDYRTYAMRVLFPGIEDHPVLRELEVQGNGQQHVEKALKLFAQLINNKVFLLTFIRTLELQRSFSMRDRGNVASLIMTGLQGRLEYATDVLKQLLSDLIDKNLENKNHPKLLLRRTESVAEKMLTNWFAFLLHKFLKECAGEPLFMLYCAIKQQMEKGPIDAITGEARYSLSEDKLIRQQIEYKTLILNCVNPDNENSPEIPVKVLNCDTITQVKEKILDAVYKNVPYSQRPRAVDMDLEWRQGRIARVVLQDEDITTKIEGDWKRLNTLMHYQVSDRSVVALVPKQTSSYNIPASASISRTSISRYDSSFRYTGSPDSLRSRAPMITPDLESGVKVWHLVKNHDHGDQKEGDRGSKMVSEIYLTRLLATKGTLQKFVDDLFETLFSTVHRGSALPLAIKYMFDFLDEQADRHSIHDTDVRHTWKSNCLPLRFWVNVIKNPQFVFDIHKGSITDACLSVVAQTFMDSCSTSEHRLGKDSPSNKLLYAKDIPSYKSWVERYYADIAKLPAISDQDMNAYLAEQSRLHAVEFNMLSALNEIYSYVSKYSEELIGALEQDEQARRQRLAYKVEQLINAMSIES
